Results taken from the supplement of paper PMC10849652.
The list shows a part of the results.

Protein sequences, listed by entry. Tags and fused reporters are not part of them. Lines headed by an entry give the natural chain unless they say otherwise; changes in a name come on top.
UniProt Q9UJ14: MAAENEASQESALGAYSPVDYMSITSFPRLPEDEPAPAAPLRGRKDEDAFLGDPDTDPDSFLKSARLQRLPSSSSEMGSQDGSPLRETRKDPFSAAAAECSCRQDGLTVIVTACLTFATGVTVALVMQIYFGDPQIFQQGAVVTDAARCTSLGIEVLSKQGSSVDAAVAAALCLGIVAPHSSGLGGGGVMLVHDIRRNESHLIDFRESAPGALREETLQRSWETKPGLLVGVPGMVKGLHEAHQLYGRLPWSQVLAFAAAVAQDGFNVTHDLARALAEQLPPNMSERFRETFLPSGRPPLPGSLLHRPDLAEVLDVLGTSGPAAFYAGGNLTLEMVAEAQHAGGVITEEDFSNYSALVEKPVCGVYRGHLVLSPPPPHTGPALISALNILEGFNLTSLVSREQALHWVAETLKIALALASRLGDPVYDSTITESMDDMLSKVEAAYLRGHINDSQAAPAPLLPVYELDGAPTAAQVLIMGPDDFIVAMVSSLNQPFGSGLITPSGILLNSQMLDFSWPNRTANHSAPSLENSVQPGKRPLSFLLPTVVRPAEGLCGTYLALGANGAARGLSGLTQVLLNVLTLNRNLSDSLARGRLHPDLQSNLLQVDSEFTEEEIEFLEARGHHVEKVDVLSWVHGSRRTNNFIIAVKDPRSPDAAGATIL
UniProt Q9Y2X7: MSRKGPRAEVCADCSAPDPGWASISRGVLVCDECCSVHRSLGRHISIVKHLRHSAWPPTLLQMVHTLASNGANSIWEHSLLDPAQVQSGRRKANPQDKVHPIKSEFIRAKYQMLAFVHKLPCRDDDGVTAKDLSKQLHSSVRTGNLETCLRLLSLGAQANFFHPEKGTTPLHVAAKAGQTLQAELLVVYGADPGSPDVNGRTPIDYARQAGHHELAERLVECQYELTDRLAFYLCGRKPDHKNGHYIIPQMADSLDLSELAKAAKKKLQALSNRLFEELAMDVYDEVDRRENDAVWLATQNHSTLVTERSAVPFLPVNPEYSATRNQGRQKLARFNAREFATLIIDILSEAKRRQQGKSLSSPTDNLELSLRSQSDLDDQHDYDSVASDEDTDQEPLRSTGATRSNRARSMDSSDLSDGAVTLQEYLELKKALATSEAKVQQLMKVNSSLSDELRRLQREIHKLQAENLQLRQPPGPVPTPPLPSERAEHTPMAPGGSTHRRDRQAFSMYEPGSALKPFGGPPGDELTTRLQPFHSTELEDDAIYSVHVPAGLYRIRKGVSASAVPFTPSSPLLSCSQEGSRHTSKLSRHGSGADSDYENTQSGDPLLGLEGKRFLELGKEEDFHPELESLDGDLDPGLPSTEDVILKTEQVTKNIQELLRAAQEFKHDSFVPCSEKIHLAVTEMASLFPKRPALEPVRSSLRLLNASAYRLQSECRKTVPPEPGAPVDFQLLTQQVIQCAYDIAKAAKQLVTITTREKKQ
UniProt P63218: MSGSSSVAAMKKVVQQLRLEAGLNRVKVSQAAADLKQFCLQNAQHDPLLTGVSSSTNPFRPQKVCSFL
UniProt Q9NS18: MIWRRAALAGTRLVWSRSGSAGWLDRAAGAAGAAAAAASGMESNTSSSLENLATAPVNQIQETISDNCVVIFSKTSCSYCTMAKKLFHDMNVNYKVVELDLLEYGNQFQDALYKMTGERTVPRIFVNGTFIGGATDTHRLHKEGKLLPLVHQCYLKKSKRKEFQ
UniProt P15586: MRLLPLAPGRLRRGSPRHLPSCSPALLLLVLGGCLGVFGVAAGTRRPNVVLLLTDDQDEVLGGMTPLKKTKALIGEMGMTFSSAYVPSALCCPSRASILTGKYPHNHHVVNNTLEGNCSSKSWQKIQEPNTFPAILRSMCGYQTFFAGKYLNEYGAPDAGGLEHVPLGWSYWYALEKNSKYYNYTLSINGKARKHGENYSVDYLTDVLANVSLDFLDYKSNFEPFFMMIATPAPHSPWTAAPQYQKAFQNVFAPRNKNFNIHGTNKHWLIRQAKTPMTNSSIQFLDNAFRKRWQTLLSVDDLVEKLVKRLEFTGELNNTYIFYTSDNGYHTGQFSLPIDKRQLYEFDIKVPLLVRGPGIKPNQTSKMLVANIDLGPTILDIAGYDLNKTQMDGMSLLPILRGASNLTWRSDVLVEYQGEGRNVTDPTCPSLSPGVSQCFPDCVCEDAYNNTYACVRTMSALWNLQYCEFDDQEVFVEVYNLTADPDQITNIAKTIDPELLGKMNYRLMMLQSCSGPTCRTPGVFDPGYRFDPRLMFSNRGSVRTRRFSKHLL
UniProt Q86WP2: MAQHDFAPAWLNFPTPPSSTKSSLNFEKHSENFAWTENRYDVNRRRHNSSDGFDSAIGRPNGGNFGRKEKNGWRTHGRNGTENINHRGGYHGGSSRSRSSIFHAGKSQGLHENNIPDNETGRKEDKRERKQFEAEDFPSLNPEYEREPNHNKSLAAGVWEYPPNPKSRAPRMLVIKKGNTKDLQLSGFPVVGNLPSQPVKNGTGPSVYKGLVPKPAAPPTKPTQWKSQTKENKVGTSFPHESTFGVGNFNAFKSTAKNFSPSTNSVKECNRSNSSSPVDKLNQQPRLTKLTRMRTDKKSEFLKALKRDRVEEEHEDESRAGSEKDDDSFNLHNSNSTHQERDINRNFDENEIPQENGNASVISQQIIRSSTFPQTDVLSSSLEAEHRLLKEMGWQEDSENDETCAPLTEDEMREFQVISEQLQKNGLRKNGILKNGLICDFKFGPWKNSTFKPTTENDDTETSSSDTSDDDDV
UniProt Q9HCN4, whole entry, looked up: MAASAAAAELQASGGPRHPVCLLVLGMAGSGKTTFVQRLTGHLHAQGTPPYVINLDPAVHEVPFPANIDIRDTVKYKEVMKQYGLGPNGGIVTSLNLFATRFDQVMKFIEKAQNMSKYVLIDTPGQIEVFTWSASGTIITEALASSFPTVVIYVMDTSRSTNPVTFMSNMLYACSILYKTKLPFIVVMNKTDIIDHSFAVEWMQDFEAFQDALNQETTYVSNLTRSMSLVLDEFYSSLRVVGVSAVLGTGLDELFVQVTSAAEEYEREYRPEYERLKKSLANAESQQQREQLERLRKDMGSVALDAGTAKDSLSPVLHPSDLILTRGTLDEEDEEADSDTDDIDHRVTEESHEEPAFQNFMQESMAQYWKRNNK
UniProt Q9NPB8: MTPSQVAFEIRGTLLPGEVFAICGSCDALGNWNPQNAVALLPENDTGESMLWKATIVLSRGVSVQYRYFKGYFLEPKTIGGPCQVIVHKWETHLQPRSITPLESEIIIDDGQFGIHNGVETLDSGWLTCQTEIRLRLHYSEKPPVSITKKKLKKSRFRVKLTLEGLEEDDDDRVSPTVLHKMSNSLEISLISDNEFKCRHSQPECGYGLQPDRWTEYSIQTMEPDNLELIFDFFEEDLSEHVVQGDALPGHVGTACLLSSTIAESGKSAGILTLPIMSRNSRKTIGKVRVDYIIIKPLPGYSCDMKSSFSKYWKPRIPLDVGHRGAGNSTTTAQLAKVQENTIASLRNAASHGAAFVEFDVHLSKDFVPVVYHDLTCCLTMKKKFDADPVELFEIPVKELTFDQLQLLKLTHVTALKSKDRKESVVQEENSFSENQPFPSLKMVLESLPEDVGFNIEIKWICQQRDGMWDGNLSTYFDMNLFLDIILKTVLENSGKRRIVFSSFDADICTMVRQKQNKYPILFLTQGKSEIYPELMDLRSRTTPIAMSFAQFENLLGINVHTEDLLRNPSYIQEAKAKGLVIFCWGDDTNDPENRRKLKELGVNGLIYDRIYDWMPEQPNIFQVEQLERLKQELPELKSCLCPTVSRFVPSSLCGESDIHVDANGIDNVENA
UniProt Q13227: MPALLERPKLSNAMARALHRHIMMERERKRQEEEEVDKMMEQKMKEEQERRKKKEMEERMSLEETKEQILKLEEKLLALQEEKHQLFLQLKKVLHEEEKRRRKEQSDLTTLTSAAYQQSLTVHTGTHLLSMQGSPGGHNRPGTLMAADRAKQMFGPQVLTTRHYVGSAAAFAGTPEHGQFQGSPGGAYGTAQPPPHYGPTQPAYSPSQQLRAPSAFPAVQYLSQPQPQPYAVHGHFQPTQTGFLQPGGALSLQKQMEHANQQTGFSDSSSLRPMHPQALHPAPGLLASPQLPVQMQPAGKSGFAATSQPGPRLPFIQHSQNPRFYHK
UniProt P29992, whole entry, looked up: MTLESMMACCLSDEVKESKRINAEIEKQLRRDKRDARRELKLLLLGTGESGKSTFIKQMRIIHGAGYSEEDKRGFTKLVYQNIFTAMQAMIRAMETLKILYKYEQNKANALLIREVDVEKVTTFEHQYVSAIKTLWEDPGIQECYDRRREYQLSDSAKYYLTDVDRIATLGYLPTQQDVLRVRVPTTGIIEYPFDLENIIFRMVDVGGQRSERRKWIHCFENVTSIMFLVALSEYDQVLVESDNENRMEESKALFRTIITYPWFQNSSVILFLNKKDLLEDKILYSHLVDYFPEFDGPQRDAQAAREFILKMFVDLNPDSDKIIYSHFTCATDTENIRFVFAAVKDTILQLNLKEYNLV
UniProt P13224: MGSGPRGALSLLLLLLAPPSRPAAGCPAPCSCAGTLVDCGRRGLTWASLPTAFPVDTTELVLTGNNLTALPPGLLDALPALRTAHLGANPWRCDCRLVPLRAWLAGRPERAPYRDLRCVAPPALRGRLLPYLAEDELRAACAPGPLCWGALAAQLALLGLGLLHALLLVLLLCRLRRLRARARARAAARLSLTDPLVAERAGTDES
UniProt Q9H3C7, whole entry, looked up: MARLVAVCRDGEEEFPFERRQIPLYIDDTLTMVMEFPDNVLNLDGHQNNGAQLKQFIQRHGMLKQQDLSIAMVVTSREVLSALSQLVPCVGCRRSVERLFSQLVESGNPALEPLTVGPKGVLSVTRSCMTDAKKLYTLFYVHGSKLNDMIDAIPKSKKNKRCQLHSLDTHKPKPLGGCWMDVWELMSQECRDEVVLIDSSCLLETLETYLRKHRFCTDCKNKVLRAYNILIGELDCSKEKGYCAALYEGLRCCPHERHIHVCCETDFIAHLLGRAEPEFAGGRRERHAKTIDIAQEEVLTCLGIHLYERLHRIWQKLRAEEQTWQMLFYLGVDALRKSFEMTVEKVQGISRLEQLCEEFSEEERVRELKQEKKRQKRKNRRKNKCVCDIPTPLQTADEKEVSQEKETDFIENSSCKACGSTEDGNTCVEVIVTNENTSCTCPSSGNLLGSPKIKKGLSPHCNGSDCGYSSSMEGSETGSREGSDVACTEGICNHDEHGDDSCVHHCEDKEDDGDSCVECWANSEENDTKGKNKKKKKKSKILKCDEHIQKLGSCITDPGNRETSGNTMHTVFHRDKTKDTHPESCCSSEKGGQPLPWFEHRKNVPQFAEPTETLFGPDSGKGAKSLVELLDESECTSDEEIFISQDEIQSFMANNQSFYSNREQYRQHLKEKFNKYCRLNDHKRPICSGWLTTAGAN
UniProt Q7Z5G4, whole entry, looked up: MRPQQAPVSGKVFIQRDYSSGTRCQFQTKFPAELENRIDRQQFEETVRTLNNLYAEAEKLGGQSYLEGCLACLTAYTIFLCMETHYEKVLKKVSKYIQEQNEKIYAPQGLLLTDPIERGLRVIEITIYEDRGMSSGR
UniProt O75223: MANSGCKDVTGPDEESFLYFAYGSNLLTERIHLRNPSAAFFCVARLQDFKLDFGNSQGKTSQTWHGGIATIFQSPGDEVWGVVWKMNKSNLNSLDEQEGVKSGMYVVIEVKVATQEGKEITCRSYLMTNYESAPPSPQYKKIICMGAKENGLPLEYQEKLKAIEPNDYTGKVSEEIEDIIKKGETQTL
UniProt Q9BRR8: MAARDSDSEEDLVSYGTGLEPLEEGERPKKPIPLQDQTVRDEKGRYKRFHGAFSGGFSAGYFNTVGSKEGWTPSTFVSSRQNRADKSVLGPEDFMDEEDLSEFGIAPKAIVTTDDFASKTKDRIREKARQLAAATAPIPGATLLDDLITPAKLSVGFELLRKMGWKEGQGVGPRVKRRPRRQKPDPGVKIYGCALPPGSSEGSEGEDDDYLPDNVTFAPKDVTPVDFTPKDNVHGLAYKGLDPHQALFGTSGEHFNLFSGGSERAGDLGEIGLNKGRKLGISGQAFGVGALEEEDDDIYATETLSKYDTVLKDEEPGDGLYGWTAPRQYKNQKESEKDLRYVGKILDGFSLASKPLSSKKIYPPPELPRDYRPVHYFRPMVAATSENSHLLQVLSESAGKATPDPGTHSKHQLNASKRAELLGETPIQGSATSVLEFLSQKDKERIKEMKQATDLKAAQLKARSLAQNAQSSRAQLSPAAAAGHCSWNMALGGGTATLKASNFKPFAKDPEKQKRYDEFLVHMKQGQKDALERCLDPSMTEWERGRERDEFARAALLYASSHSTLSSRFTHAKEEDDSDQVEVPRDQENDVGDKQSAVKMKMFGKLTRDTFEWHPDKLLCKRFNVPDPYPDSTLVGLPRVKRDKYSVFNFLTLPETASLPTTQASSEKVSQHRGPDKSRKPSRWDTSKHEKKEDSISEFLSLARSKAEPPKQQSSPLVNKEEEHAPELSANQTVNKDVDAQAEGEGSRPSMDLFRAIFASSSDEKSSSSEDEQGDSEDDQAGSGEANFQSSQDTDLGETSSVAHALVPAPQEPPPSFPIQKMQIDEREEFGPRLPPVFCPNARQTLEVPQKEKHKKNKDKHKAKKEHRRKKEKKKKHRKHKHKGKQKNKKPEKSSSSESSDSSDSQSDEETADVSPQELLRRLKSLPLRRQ

Columns and labels:
Assay in all cases: log2 fold change, soluble protein after heating vs DMSO (PISA); higher = thermal stabilisation; K562 lysate, 10 uM; active = over 0.2 and 3.5 SD of the protein, either way, in both replicates (recomputed)
ibrutinib = compound: C=CC(=O)N1CCC[C@@H](n2nc(-c3ccc(Oc4ccccc4)cc3)c3c(N)ncnc32)C1 [ibrutinib]
Outline: (§1)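 The values are log-two fold changes in thermal stability compared with solvent controls and come from duplicates. They were obtained by TMTpro 16plex LC-MS/MS, with channel sums equalised, on the supernatant after 21,000xg for 90 min. That supernatant came from crude K562 extract at 1 mg/mL protein treated with 10 μM compound for 30 min, heated for 3 min across 48°C-58°C, pooled and brought to 0.5% NP-40 at 4°C.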

[1] = compound: CC(=O)c1cnc2ccc(-c3cc(Cl)c(O)c(Cl)c3)nc2c1N[C@H]1CC[C@H](CN(C)C)CC1
Outline: as §1

ralimetinib = compound: CC(C)(C)Cn1c(N)nc2ccc(-c3[nH]c(C(C)(C)C)nc3-c3ccc(F)cc3)nc21 [ralimetinib]
Outline: as §1

[2] = compound: CC(C)(O)CC(=O)NCCn1ccc2ncnc(Nc3ccc(Oc4cccc(C(F)(F)F)c4)c(Cl)c3)c21
Outline: as §1

[3] = compound: CC(C)C1=C2N=C(C=C(N2N=C1)NCC3=CC=CC=C3)NCCCCCCN
Outline: as §1

[4] = compound: CC1=C(C(CC(=O)N1)C2=CC=C(C=C2)C(F)(F)F)C(=O)NC3=C(C=C4C(=C3)C=NN4)F
Outline: as §1

[5] = compound: CC1=C(C2=C(C=C1)C(=O)C3=CC=CC=C3N2CCCN)C
Outline: as §1

[6] = compound: CC1=C(C=C(C=C1)NC(=O)C2=CC(=CC=C2)C(C)(C)C#N)NC3=CC4=C(C=C3)N=CN(C4=O)C
Outline: as §1

[7] = compound: CC1=C(C=C(C=C1)NC(=O)C2=CC(=CC=C2)N(C)C)NC(=O)C3=CC=C(C=C3)O
Outline: as §1

[8] = compound: CC1=CC=C(C=C1)SC2=C3C=C(SC3=CN=C2)C(=O)N
Outline: as §1

Measured: log2 fold change

GGT7 (UniProt Q9UJ14)
inactive: ibrutinib 0.019 | [1] 0.004 | ralimetinib -0.07 | [2] -0.106 | [3] -0.05 | [4] 0.003 | [5] -0.066 | [6] -0.032 | [7] 0.035 | [8] 0.017

GPS1 isoform 6 (UniProt Q13098)
inactive: ibrutinib -0.015 | [1] -0.011 | ralimetinib 0.007 | [2] -0.008 | [3] -0.014 | [4] 0.001 | [5] 0.01 | [6] 0.012 | [7] 0.006 | [8] -0.014

GIT1 (UniProt Q9Y2X7)
inactive: ibrutinib 0.075 | [1] -0.002 | ralimetinib -0.042 | [2] 0.033 | [3] -0.004 | [4] -0.074 | [5] -0.012 | [6] 0.044 | [7] -0.007 | [8] 0.024

GNG5 (UniProt P63218)
inactive: ibrutinib -0.033 | [1] -0.023 | ralimetinib 0.135 | [2] -0.056 | [3] 0.016 | [4] 0.046 | [5] -0.037 | [6] 0.156 | [7] -0.228 | [8] 0.07

GLRX2 (UniProt Q9NS18)
inactive: ibrutinib 0.004 | [1] 0.023 | ralimetinib -0.032 | [2] -0.041 | [3] -0.002 | [4] 0.055 | [5] -0.064 | [6] -0.076 | [7] -0.063 | [8] 0.014

GIGYF1 (UniProt O75420)
inactive: ibrutinib -0.029 | [1] -0.09 | ralimetinib 0.003 | [2] -0.015 | [3] 0.043 | [4] 0.012 | [5] 0.062 | [6] 0.139 | [7] 0.01 | [8] -0.02

GNS (UniProt P15586)
inactive: ibrutinib 0.008 | [1] -0.011 | ralimetinib 0.029 | [2] 0.027 | [3] -0.005 | [4] 0.007 | [5] 0.03 | [6] -0.021 | [7] 0.019 | [8] -0.009

GPBP1 isoform 2 (UniProt Q86WP2)
inactive: ibrutinib 0.208 | [1] -0.003 | ralimetinib -0.022 | [2] 0.014 | [3] -0.007 | [4] -0.038 | [5] -0.014 | [6] 0.135 | [7] -0.06 | [8] -0.032

GPR108 (UniProt Q9NPR9)
inactive: ibrutinib -0.017 | [1] -0.063 | ralimetinib 0.001 | [2] -0.024 | [3] -0.08 | [4] 0.039 | [5] 0.049 | [6] 0.027 | [7] -0.062 | [8] -0.004

GPN1 isoform 5 (UniProt Q9HCN4)
inactive: ibrutinib 0.022 | [1] 0.008 | ralimetinib 0.062 | [2] -0.019 | [3] -0.006 | [4] 0.053 | [5] 0.008 | [6] -0.004 | [7] -0.035 | [8] -0.002

GNPTG (UniProt Q9UJJ9)
inactive: ibrutinib 0.172 | [1] -0.016 | ralimetinib 0.064 | [2] 0.061 | [3] -0.151 | [4] 0.103 | [5] 0.039 | [6] -0.114 | [7] 0.104 | [8] -0.016

GOSR2 isoform 2 (UniProt O14653)
inactive: ibrutinib 0.064 | [1] 0.008 | ralimetinib -0.003 | [2] 0.005 | [3] -0.021 | [4] -0.049 | [5] 0.001 | [6] -0.02 | [7] -0.004 | [8] -0.032

GNB3 (UniProt P16520)
inactive: ibrutinib -0.028 | [1] -0.087 | ralimetinib 0.064 | [2] -0.07 | [3] -0.065 | [4] -0.042 | [5] 0.019 | [6] 0.082 | [7] 0.116 | [8] -0.073

GGPS1 (UniProt O95749)
inactive: ibrutinib 0.01 | [1] 0.012 | ralimetinib 0.004 | [2] 0.023 | [3] -0.005 | [4] 0.003 | [5] -0.031 | [6] -0.005 | [7] -0.04 | [8] 0.044

GPCPD1 (UniProt Q9NPB8)
inactive: ibrutinib 0.012 | [1] 0.018 | ralimetinib 0.026 | [2] 0.021 | [3] -0.018 | [4] 0.019 | [5] -0.018 | [6] -0.053 | [7] -0.007 | [8] 0.065

GOPC (UniProt Q9HD26)
inactive: ibrutinib 0.016 | [1] 0.007 | ralimetinib 0.022 | [2] 0.011 | [3] 0.014 | [4] 0.026 | [5] -0.042 | [6] -0.036 | [7] 0.03 | [8] -0.001

GOLGB1 (UniProt Q14789)
inactive: ibrutinib 0.006 | [1] -0.003 | ralimetinib 0.011 | [2] -0.012 | [3] 0.002 | [4] -0.005 | [5] -0.025 | [6] -0.007 | [7] 0.013 | [8] -0.002

GPS2 (UniProt Q13227)
inactive: ibrutinib 0.005 | [1] 0.011 | ralimetinib 0.032 | [2] 0.044 | [3] -0.002 | [4] 0.005 | [5] 0.071 | [6] -0.065 | [7] -0.027 | [8] -0.072

GNA11 (UniProt P29992)
inactive: ibrutinib -0.02 | [1] 0.032 | ralimetinib -0.015 | [2] -0.003 | [3] -0.033 | [4] -0.008 | [5] 0.017 | [6] 0 | [7] -0.036 | [8] 0.022

GGH (UniProt Q92820)
inactive: ibrutinib -0.011 | [1] -0.015 | ralimetinib 0.005 | [2] -0.067 | [3] 0.038 | [4] 0.019 | [5] 0.018 | [6] 0.071 | [7] -0.065 | [8] -0.001

GNB1 (UniProt P62873)
inactive: ibrutinib 0.018 | [1] -0.018 | ralimetinib -0.036 | [2] 0.057 | [3] 0.003 | [4] -0.052 | [5] 0.076 | [6] 0.145 | [7] -0.076 | [8] -0.011

Pulled one by one from above (2):
GGH (UniProt Q92820)
inactive: ibrutinib -0.011 | [1] -0.015 | ralimetinib 0.005 | [2] -0.067 | [3] 0.038 | [4] 0.019 | [5] 0.018 | [6] 0.071 | [7] -0.065 | [8] -0.001

GNB1 (UniProt P62873)
inactive: ibrutinib 0.018 | [1] -0.018 | ralimetinib -0.036 | [2] 0.057 | [3] 0.003 | [4] -0.052 | [5] 0.076 | [6] 0.145 | [7] -0.076 | [8] -0.011

(next part)

GP1BB isoform 2 (UniProt P13224)
inactive: ibrutinib 0.039 | [1] 0.003 | ralimetinib 0.017 | [2] 0.009 | [3] 0.03 | [4] 0.036 | [5] 0.053 | [6] -0.087 | [7] 0.08 | [8] 0.031

GIT2 (UniProt Q14161)
inactive: ibrutinib -0.017 | [1] -0.038 | ralimetinib 0.046 | [2] -0.024 | [3] 0.085 | [4] 0 | [5] -0.097 | [6] 0.073 | [7] -0.004 | [8] -0.002

GGNBP2 (UniProt Q9H3C7)
inactive: ibrutinib -0.011 | [1] -0.01 | ralimetinib -0.002 | [2] -0.069 | [3] 0.027 | [4] 0.023 | [5] -0.029 | [6] 0.026 | [7] 0.044 | [8] 0.022

GNL3L (UniProt Q9NVN8)
inactive: ibrutinib -0.023 | [1] -0.036 | ralimetinib -0.004 | [2] -0.086 | [3] 0.086 | [4] 0.062 | [5] -0.011 | [6] 0.04 | [7] 0.022 | [8] -0.311

GOLGA7 (UniProt Q7Z5G4)
inactive: ibrutinib 0.107 | [1] -0.032 | ralimetinib -0.007 | [2] -0.035 | [3] 0.051 | [4] -0.036 | [5] -0.028 | [6] 0.045 | [7] -0.008 | [8] -0.005

GK (UniProt P32189)
inactive: ibrutinib 0.02 | [1] 0.029 | ralimetinib 0.061 | [2] 0.008 | [3] -0.027 | [4] 0.024 | [5] 0.019 | [6] 0.008 | [7] -0.009 | [8] -0.032

GGCT (UniProt O75223)
inactive: ibrutinib -0.022 | [1] -0.015 | ralimetinib 0.003 | [2] 0.001 | [3] 0.004 | [4] -0.007 | [5] 0.011 | [6] 0.084 | [7] -0.024 | [8] -0.001

GOLIM4 (UniProt O00461)
inactive: ibrutinib 0.014 | [1] 0.048 | ralimetinib 0.003 | [2] -0.053 | [3] -0.006 | [4] 0.038 | [5] -0.022 | [6] 0.002 | [7] -0.033 | [8] -0.01

GGCX (UniProt P38435)
inactive: ibrutinib -0.063 | [1] -0.002 | ralimetinib 0.072 | [2] -0.088 | [3] -0.097 | [4] 0.037 | [5] 0.033 | [6] -0.031 | [7] 0.095 | [8] -0.045

GPATCH1 (UniProt Q9BRR8)
inactive: ibrutinib -0.031 | [1] -0.008 | ralimetinib 0.171 | [2] 0.058 | [3] 0.009 | [4] 0.113 | [5] -0.067 | [6] 0.02 | [7] -0.086 | [8] -0.011

GPR180 (UniProt Q86V85)
inactive: [6] 0.212
